Experimental data: patent publication US7402691B2, “Malononitrile compounds and their use as pesticides” (Sumitomo Chemical Company, Limited, priority 2001, dated 2008)
Some of these results come from one statement about several compounds together.

What was measured:
Type in all cases: in vivo
[1] = system: Aphis gossypii; experiment: Pesticidal test against Aphis gossypii on cucumber (Test Example 3); conditions: 500 ppm sprayed 20 ml/cup on cucumber plants with about 30 Aphis gossypii
[2] = system: Nilaparvata lugens; experiment: Pesticidal test against Nilaparvata lugens, test liquid sprayed on rice plants (Test Example 1); conditions: 500 ppm test liquid sprayed 20 ml/cup on rice plants; 30 first-instar larvae released
[3] = system: Nilaparvata lugens; experiment: Pesticidal test against Nilaparvata lugens, rice plants stood in test liquid (Test Example 2); conditions: 45.5 ppm, cup with rice plants placed in 55 ml test liquid for 6 days; 30 first-instar larvae released

N#CC(C#N)(CCC(F)(F)F)Cc1ccc(SC(F)(F)F)cc1 [Compound 13, 2-(4-(trifluoromethylthio)benzyl)-2-(3,3,3-trifluoropropyl)malononitrile]
≤ 3: number of survived pests on the 6th day after the treatment [1] | number of parasitic pests on the 6th day after the treatment [2] | number of parasitic pests on the 6th day after the treatment [3]

N#CC(C#N)(CCC(F)(F)F)Cc1ccc(Cl)cc1 [Compound 15, 2-(4-chlorobenzyl)-2-(3,3,3-trifluoropropyl)malononitrile]
≤ 3: number of survived pests on the 6th day after the treatment [1] | number of parasitic pests on the 6th day after the treatment [2] | number of parasitic pests on the 6th day after the treatment [3]

N#CC(C#N)(CCC(F)(F)F)Cc1ccc(F)cc1 [Compound 16, 2-(4-fluorobenzyl)-2-(3,3,3-trifluoropropyl)malononitrile]
≤ 3: number of survived pests on the 6th day after the treatment [1] | number of parasitic pests on the 6th day after the treatment [2] | number of parasitic pests on the 6th day after the treatment [3]

N#CC(C#N)(CCC(F)(F)F)Cc1ccc(F)c(F)c1 [Compound 19, 2-(3,4-difluorobenzyl)-2-(3,3,3-trifluoropropyl)malononitrile]
≤ 3: number of survived pests on the 6th day after the treatment [1] | number of parasitic pests on the 6th day after the treatment [2] | number of parasitic pests on the 6th day after the treatment [3]

N#CC(C#N)(CCC(F)(F)F)Cc1ccc(Cl)c(Cl)c1 [Compound 21, 2-(3,4-dichlorobenzyl)-2-(3,3,3-trifluoropropyl)malononitrile]
≤ 3: number of survived pests on the 6th day after the treatment [1] | number of parasitic pests on the 6th day after the treatment [2] | number of parasitic pests on the 6th day after the treatment [3]

N#Cc1ccc(CC(C#N)(C#N)CCC(F)(F)F)cc1 [Compound 22, 2-(4-cyanobenzyl)-2-(3,3,3-trifluoropropyl)malononitrile]
≤ 3: number of survived pests on the 6th day after the treatment [1] | number of parasitic pests on the 6th day after the treatment [2] | number of parasitic pests on the 6th day after the treatment [3]

N#CC(C#N)(CCC(F)(F)C(F)(F)F)Cc1ccc(Cl)cc1 [Compound 23, 2-(4-chlorobenzyl)-2-(3,3,4,4,4-pentafluorobutyl)malononitrile]
≤ 3: number of survived pests on the 6th day after the treatment [1] | number of parasitic pests on the 6th day after the treatment [2] | number of parasitic pests on the 6th day after the treatment [3]

CSc1ccc(CC(C#N)(C#N)CCC(F)(F)F)cc1 [Compound 34, 2-(4-(methylthio)benzyl)-2-(3,3,3-trifluoropropyl)malononitrile]
≤ 3: number of survived pests on the 6th day after the treatment [1] | number of parasitic pests on the 6th day after the treatment [2] | number of parasitic pests on the 6th day after the treatment [3]

N#CC(C#N)(CCC(F)(F)F)Cc1ccc(C(F)(F)F)c(Cl)c1 [Compound 39, 2-(3-chloro-4-(trifluoromethyl)benzyl)-2-(3,3,3-trifluoropropyl)malononitrile]
≤ 3: number of survived pests on the 6th day after the treatment [1] | number of parasitic pests on the 6th day after the treatment [2] | number of parasitic pests on the 6th day after the treatment [3]

N#CC(C#N)(CCC(F)(F)F)Cc1ccc(C(F)(F)F)cc1Cl [Compound 41, 2-(2-chloro-4-(trifluoromethyl)benzyl)-2-(3,3,3-trifluoropropyl)malononitrile]
≤ 3: number of survived pests on the 6th day after the treatment [1] | number of parasitic pests on the 6th day after the treatment [2] | number of parasitic pests on the 6th day after the treatment [3]

N#CC(C#N)(CCC(F)(F)F)Cc1ccc(OC(F)(F)F)cc1 [Compound 50, 2-(3,3,3-trifluoropropyl)-2-(4-(trifluoromethoxy)benzyl)malononitrile]
≤ 3: number of survived pests on the 6th day after the treatment [1] | number of parasitic pests on the 6th day after the treatment [2] | number of parasitic pests on the 6th day after the treatment [3]

N#CC(C#N)(CCC(F)(F)F)Cc1ccc(C(F)(F)F)cc1 [Compound 74, 2-(3,3,3-trifluoropropyl)-2-(4-(trifluoromethyl)benzyl)malononitrile]
≤ 3: number of survived pests on the 6th day after the treatment [1] | number of parasitic pests on the 6th day after the treatment [2] | number of parasitic pests on the 6th day after the treatment [3]
